Data reported in publication PMC4103824.
Results are given in words; binding and its absence hold for the method and conditions named. Binding seen in cells or lysates may run through a third protein. Some entries that bind do so weakly or less than the wild type. Sequences can lack the tags named with a protein.

T1: CERK1 (endogenous, Col-0 seedlings) (Arabidopsis thaliana (endogenous in Col-0 seedlings)) (UniProt A8R7E6)
T1 sequence: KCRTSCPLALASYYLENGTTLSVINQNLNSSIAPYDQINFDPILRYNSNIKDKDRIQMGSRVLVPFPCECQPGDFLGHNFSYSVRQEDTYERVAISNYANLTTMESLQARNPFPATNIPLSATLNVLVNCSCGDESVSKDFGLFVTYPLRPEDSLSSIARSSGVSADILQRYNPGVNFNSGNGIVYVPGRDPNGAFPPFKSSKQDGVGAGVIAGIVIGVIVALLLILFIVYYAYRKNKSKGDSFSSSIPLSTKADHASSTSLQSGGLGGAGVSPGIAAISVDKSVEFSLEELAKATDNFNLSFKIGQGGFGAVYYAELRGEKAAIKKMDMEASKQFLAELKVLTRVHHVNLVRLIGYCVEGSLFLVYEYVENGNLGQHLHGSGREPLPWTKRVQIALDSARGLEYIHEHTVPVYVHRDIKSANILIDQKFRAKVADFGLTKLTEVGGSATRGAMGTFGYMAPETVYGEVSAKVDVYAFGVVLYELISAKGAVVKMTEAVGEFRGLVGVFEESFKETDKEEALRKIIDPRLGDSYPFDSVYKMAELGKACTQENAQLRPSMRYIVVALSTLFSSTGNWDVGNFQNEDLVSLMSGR

T2: Myc-tagged full length AtLIK1 (protoplasts) (Arabidopsis thaliana) (UniProt C0LGN2)
T2 sequence: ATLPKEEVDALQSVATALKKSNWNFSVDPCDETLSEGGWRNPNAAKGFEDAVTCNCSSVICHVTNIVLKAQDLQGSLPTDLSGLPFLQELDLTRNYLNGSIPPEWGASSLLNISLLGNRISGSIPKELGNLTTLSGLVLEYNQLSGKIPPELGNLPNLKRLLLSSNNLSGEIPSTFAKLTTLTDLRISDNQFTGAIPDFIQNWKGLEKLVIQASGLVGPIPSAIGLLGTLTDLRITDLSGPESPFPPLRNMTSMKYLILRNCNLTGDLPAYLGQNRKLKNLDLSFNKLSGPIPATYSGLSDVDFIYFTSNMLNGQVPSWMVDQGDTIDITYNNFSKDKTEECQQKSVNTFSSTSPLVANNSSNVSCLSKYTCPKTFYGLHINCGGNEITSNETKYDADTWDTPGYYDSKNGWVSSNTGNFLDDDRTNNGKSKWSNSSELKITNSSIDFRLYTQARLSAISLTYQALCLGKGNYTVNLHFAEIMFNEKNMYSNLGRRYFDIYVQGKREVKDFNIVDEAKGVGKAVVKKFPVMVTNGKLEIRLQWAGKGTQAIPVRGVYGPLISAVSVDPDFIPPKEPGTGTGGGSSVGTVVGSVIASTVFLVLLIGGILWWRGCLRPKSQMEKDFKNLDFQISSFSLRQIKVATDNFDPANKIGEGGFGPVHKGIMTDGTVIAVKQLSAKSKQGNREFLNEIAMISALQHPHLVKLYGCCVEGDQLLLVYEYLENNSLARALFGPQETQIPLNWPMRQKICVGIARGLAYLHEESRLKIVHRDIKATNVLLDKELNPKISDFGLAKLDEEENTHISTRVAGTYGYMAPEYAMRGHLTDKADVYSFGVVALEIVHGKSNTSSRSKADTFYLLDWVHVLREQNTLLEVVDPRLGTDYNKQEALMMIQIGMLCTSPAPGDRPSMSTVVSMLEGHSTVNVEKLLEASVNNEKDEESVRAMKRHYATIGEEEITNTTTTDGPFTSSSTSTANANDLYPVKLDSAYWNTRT


Experiments:
[1] = target: T1, CERK1 (endogenous, Col-0 seedlings) (Arabidopsis thaliana (endogenous in Col-0 seedlings)); assay: co-IP; 10-day-old transgenic Col-0 seedlings expressing LIK1-4×Myc; precipitated with anti-CERK1 antibody, detected with anti-Myc; before and at time points after chitooctaose treatment
[2] = target: T2, Myc-tagged full length AtLIK1 (protoplasts) (Arabidopsis thaliana); assay: co-IP; HA-CERK1 and Myc-LIK1 co-expressed in Arabidopsis Col-0 protoplasts; lysate in 50 mM Tris pH 7.5, 150 mM NaCl, 0.5% Triton X-100; precipitated with anti-Myc, blotted with anti-HA; before and at time points after chitin treatment

Row | binding [1] | binding [2] | Binder
1 | binds |  | Myc-tagged LIK1 (transgenic plants) (receptor, UniProt C0LGN2 27-1020) ATLPKEEVDALQSVATALKKSNWNFSVDPCDETLSEGGWRNPNAAKGFEDAVTCNCSSVICHVTNIVLKAQDLQGSLPTDLSGLPFLQELDLTRNYLNGSIPPEWGASSLLNISLLGNRISGSIPKELGNLTTLSGLVLEYNQLSGKIPPELGNLPNLKRLLLSSNNLSGEIPSTFAKLTTLTDLRISDNQFTGAIPDFIQNWKGLEKLVIQASGLVGPIPSAIGLLGTLTDLRITDLSGPESPFPPLRNMTSMKYLILRNCNLTGDLPAYLGQNRKLKNLDLSFNKLSGPIPATYSGLSDVDFIYFTSNMLNGQVPSWMVDQGDTIDITYNNFSKDKTEECQQKSVNTFSSTSPLVANNSSNVSCLSKYTCPKTFYGLHINCGGNEITSNETKYDADTWDTPGYYDSKNGWVSSNTGNFLDDDRTNNGKSKWSNSSELKITNSSIDFRLYTQARLSAISLTYQALCLGKGNYTVNLHFAEIMFNEKNMYSNLGRRYFDIYVQGKREVKDFNIVDEAKGVGKAVVKKFPVMVTNGKLEIRLQWAGKGTQAIPVRGVYGPLISAVSVDPDFIPPKEPGTGTGGGSSVGTVVGSVIASTVFLVLLIGGILWWRGCLRPKSQMEKDFKNLDFQISSFSLRQIKVATDNFDPANKIGEGGFGPVHKGIMTDGTVIAVKQLSAKSKQGNREFLNEIAMISALQHPHLVKLYGCCVEGDQLLLVYEYLENNSLARALFGPQETQIPLNWPMRQKICVGIARGLAYLHEESRLKIVHRDIKATNVLLDKELNPKISDFGLAKLDEEENTHISTRVAGTYGYMAPEYAMRGHLTDKADVYSFGVVALEIVHGKSNTSSRSKADTFYLLDWVHVLREQNTLLEVVDPRLGTDYNKQEALMMIQIGMLCTSPAPGDRPSMSTVVSMLEGHSTVNVEKLLEASVNNEKDEESVRAMKRHYATIGEEEITNTTTTDGPFTSSSTSTANANDLYPVKLDSAYWNTRT
2 |  | binds | HA-tagged full-length AtCERK1 (receptor, UniProt A8R7E6 24-617) KCRTSCPLALASYYLENGTTLSVINQNLNSSIAPYDQINFDPILRYNSNIKDKDRIQMGSRVLVPFPCECQPGDFLGHNFSYSVRQEDTYERVAISNYANLTTMESLQARNPFPATNIPLSATLNVLVNCSCGDESVSKDFGLFVTYPLRPEDSLSSIARSSGVSADILQRYNPGVNFNSGNGIVYVPGRDPNGAFPPFKSSKQDGVGAGVIAGIVIGVIVALLLILFIVYYAYRKNKSKGDSFSSSIPLSTKADHASSTSLQSGGLGGAGVSPGIAAISVDKSVEFSLEELAKATDNFNLSFKIGQGGFGAVYYAELRGEKAAIKKMDMEASKQFLAELKVLTRVHHVNLVRLIGYCVEGSLFLVYEYVENGNLGQHLHGSGREPLPWTKRVQIALDSARGLEYIHEHTVPVYVHRDIKSANILIDQKFRAKVADFGLTKLTEVGGSATRGAMGTFGYMAPETVYGEVSAKVDVYAFGVVLYELISAKGAVVKMTEAVGEFRGLVGVFEESFKETDKEEALRKIIDPRLGDSYPFDSVYKMAELGKACTQENAQLRPSMRYIVVALSTLFSSTGNWDVGNFQNEDLVSLMSGR
